Experimental data as given in US11299467B2 (Antabio SAS, priority 2017, dated 2022).
Some of these results come from one statement about several compounds together.

Test system: panel of clinical Enterobacteriacae strains expressing NDM enzymes (196 isolates)
Assay: Extended MIC profiling vs MBL-expressing clinical strains (meropenem potentiation)
Assay type: cell-based
Settings: compound at 8 μg/mL; 196 NDM-expressing clinical isolates
From the text: By contrast, the same concentration of meropenem alone is only capable of stopping the growth of <1% of the strains and within the parameters of the experiment the cessation of growth of 90% of all strains could not be achieved with meropenem alone.
To assess the coverage and potentiation of meropenem by compounds of the invention, the susceptibility of around 200 clinical isolates was examined. The criteria for selection into the panel was that the clinical strain was resistant to carbapenems, but only expressing NDM enzyme variants and not serine betalactamase enzymes with carbapenemase activity such as KPC or OXA.

N=C(N)NCC(=O)Nc1c(F)cc(S(=O)(=O)Nc2scnc2C(=O)O)cc1F [Example 2, 5-[[3,5-difluoro-4-[(2-guanidinoacetyl)amino]phenyl]sulfonylamino]thiazole-4-carboxylic acid]
strains exhibiting a meropenem MIC of 8 ug/mL: under 90%

N=C(N)NNC(=O)Nc1c(F)cc(S(=O)(=O)Nc2scnc2C(=O)O)cc1F [Example 26, 5-[[3,5-difluoro-4-(guanidinocarbamoylamino)phenyl]sulfonylamino]thiazole-4-carboxylic acid]
strains exhibiting a meropenem MIC of 8 ug/mL: under 90%
